Patent US11926642B2, “Compounds and methods for the treatment of COVID-19” (priority 2020, dated 2024)
At least one compound was matched to its structure with a doubt left.

System: SARS-CoV-2
Assay: Antiviral activity in HeLa-ACE2 cells, high content imaging with convalescent sera
Assay type: cell-based, USA-WA1/2020 SARS-CoV-2

## CCC(CC)COC(=O)[C@H](C)N[P@](=O)(OC[C@H]1O[C@@](C#N)(c2ccc3c(N)ncnn23)[C@H](O)[C@@H]1O)Oc1ccccc1 [remdesivir]
  EC50: 0.074 µM
  EC90: 0.17 µM
